Measured values as given in PubChem BioAssay AID1688 (National Center for Advancing Translational Sciences (NCATS), 2009).
The campaign covered roughly 220,000 compounds. About 2,400 (1.1%) were called active. The inconclusive results got no clear call from the source; some entries with a clear call stand among them for comparison. Calls come from the whole dose curve; as a rule, active = well fitted inhibition curve with a large enough effect; inconclusive = small, poorly fitted or top-dose-only effect, or effect the other way; inactive = no such curve, though single readings can be large or run the other way. Where the call is inconclusive, the potency comes from a doubtful curve fit.

Test: qHTS Multiplex Assay to Identify Dual Action Probes in a Cell Model of Huntington: Aggregate Formation (GFP); note: nearly all actives have a fitted effect of over 60% in size
Details: PC12 HttQ103-GFP aggregates, Acumen cytometry, 40 h; activity change, negative = inhibition: at 46.1 µM (top of the series) unless noted
Method in brief: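 Quantitative HTS on tebufenozide-induced (100 nM) PC12 cells stably expressing polyQ103 Huntingtin exon 1–GFP. Reduction of bright GFP aggregates, detected by laser scanning cytometry after lysis, identified actives across the titration.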
% is set by controls: 0 for no effect and ±100 for the full control effect; potency is the fitted concentration of half-maximal effect.

| Structure (SMILES) | Potency | activity change, negative = inhibition |
| --- | --- | --- |
| CCn1ncc(C2=NOC(C(=O)Nc3ccc(C)cc3)C2)c1C (centres undefined) | inconclusive: 35.5 µM [inhibitor, single point] | – |
| COc1ccc(C2=NOC3(CC(=O)N(c4ccc(F)cc4)C3=O)C2)cc1 (centres undefined) | – | inactive: -14.6% [at 9.22 µM] |
| COc1nc(-c2ccccc2)cc(-c2ccc(OC)c(OC)c2)n1 | inconclusive: 35.5 µM [inhibitor, single point] | – |
| COCC(=O)NC1CC2CCC(C1)N2C(=S)Nc1ccccc1C(=O)OC (centres undefined) | – | inactive: 22.3% [at 9.22 µM] |
| COc1cc(NS(=O)(=O)c2ccc(Br)s2)cc(OC)c1 | inconclusive: 3.55 µM [inhibitor, partial curve] | – |
| CC(C)c1ccc(NC(=O)C(c2ccccc2)N2CCN(C(=O)c3ccco3)CC2)cc1 (centres undefined) | inconclusive: 12.6 µM [inhibitor, single point] | – |
| c1ccc(CN2CCN(c3nc(-c4ccccc4)nc(-n4ccnc4)n3)CC2)cc1 | inconclusive: 14.1 µM [inhibitor, single point] | – |
| C/C(=N\OCC(=O)Nc1ccc2c(c1)OCCO2)c1ccc2c(c1)OCCO2 | active: 28.2 µM | – |
| COc1ccc(C2C(C(C)=O)=C(O)C(=O)N2C)c(OC)c1 (centres undefined) | – | inactive: -10.8% [at 9.22 µM] |
| O=C(Cc1c[nH]c2ccccc12)NCc1ccc2c(c1)OCO2 | inconclusive: 10 µM [inhibitor, single point] | – |
| CCN(CC(O)Cn1c2ccccc2c2ccccc21)S(=O)(=O)c1ccc(C)cc1 (centres undefined) | inconclusive: 14.1 µM [inhibitor, single point] | – |
| Cc1nnc(SCC(=O)N2CCC(c3noc4ccc(F)cc34)CC2)s1 | inconclusive: 1.78 µM [inhibitor, full curve] | – |
| C=CCOn1c(C)c(C(C)=O)c2c3nonc3ccc21 | active: 11.2 µM | – |
| COc1cccc(NCc2ccc([N+](=O)[O-])s2)c1 | inconclusive: 11.2 µM [activator, partial curve] | – |
| COc1ccc(NS(=O)(=O)c2ccc(N3CCCC3)c(NC(=S)Nc3cccc(S(=O)(=O)N(C)C)c3)c2)cc1 | – | inactive: -15.8% |
| CC(C)NC(=O)NC(=O)COC(=O)CCCSc1nc2ccccc2s1 | inconclusive: 5.62 µM [inhibitor, single point] | – |
| O=C(O)c1ccccc1C(=O)NNc1ccc(F)cc1 | – | inactive: 3.49% |
| N#CC(C#N)=C(Nc1ccc(F)cc1)SCc1cccc(Br)c1 | active: 2.24 µM | – |
| CCC1(c2ccc(F)cc2)NC(=O)N(CC(=O)Nc2ccc(-c3nc4ccc(C)cc4s3)cc2)C1=O (centres undefined) | inconclusive: 5.62 µM [inhibitor, single point] | – |
| Cn1c(Oc2ccccc2NCc2cccc(Br)c2)cc(=O)n(C)c1=O | inconclusive: 35.5 µM [inhibitor, single point] | – |
| CS(=O)(=O)N(CC(=O)NC1CCCCC1)Cc1ccc(Cl)cc1 | inconclusive: 2.24 µM [activator, single point] | – |
| CCOC(=O)C1=C(CSc2nc3ccccc3s2)NC(=O)NC1c1ccc(OC)cc1 (centres undefined) | inconclusive: 14.1 µM [inhibitor, single point] | – |

| Structure (SMILES) | Potency | activity change, negative = inhibition |
| --- | --- | --- |
| CCCn1c(C)cc(C(=O)CSc2nnc3n(CCC)c(=O)c4ccccc4n23)c1C | inconclusive: 1.26 µM [inhibitor, single point] | – |
| CSC1=NC(=O)/C(=C\c2cccc3ccccc23)S1 | inconclusive: 15.8 µM [inhibitor, single point] | – |
| O=C(Nc1nccs1)C1CC2CCC1C2 (centres undefined) | inconclusive: 35.5 µM [inhibitor, single point] | – |
| O=S(=O)(Nc1cccc2c1CCCC2)c1ccc(Cl)cc1 | inconclusive: 35.5 µM [inhibitor, single point] | – |
| Cc1c(N=C2C=C(Br)C(=O)C(Br)=C2)c(=O)n(-c2ccccc2)n1C | inconclusive: 35.5 µM [activator, single point] | – |
| COc1ccc(C(=O)NN2C(=O)C3C4C=CC(O4)C3C2=O)cc1 (centres undefined) | – | inactive: -6.45% |
| c1ccc(CC2CCN(c3ncnc4sccc34)CC2)cc1 | inconclusive: 2.24 µM [inhibitor, partial curve] | – |
| Cc1cc(NC(=O)CSc2nnc(-c3ccccc3)o2)no1 | inconclusive: 1.41 µM [activator, partial curve] | – |
| CN(C)S(=O)(=O)c1ccc(C(=O)Nc2cccnc2)cc1 | – | inactive: 10.5% |
| COc1ccc2c(c1)OC(O)(C(F)(F)C(F)F)CC2=O (centres undefined) | active: 20 µM | – |
| COC(=O)[C@@]1(Cc2ccc(F)cc2)[C@H]2c3cc(C(=O)N(C)C)n(Cc4ccc(OC(F)(F)F)cc4)c3C[C@H]2CN1C(=O)c1ccccc1 | inconclusive: 35.5 µM [inhibitor, single point] | – |
| Cc1ccc(-n2c(-c3ccc(Br)cc3)c[n+]3c2CCc2ccc4cccnc4c2-3)cc1 | active: 1.78 µM | – |
| Cn1ncc2c(Nc3ccccc3Br)ncnc21 | – | inactive: -21.8% |
| CN(C)c1nc(N)nc(CSc2n[nH]c(-c3ccccc3)n2)n1 | – | inactive: -26% |
| COCCCNc1nc2ccccc2nc1NS(=O)(=O)c1ccc(C)cc1 | – | inactive: -2.88% [at 9.22 µM] |
| COc1ccc(/C=N/NC(=S)Nc2cccc(C(=O)O)c2)cc1OC | – | inactive: 4.56% |
| Cc1ccc2[nH]c(=O)c(C3C(C#N)=C(N)Oc4c3ccc3cccnc43)cc2c1 (centres undefined) | inconclusive: 17.8 µM [inhibitor, partial curve] | – |
| CCCC(c1nnnn1C(C)(C)CC)N(Cc1ccco1)Cc1cc2ccc(OC)cc2[nH]c1=O (centres undefined) | inconclusive: 0.501 µM [inhibitor, full curve, poor fit] | – |
| O=C1CC(=C(c2ccccc2)c2ccccc2)C(=O)N1CCN1CCN(c2cccc(Cl)c2)CC1 | inconclusive: 22.4 µM [inhibitor, single point] | – |
| Cc1ccccc1Cn1c(-c2cncs2)nc2ccccc21 | inconclusive: 5.01 µM [activator, single point] | – |
| Cc1ccc2nc(SCCC(=O)O)cc(C)c2c1 | inconclusive: 35.5 µM [activator, single point] | – |
| CCOC(=O)C1(Cc2ccccc2)CCN(CC2CC=CCC2)CC1 (centres undefined) | – | inactive: 20.3% [at 9.22 µM] |

Record cards (already shown). Order of values: Potency	activity change, negative = inhibition
COc1ccc(NS(=O)(=O)c2ccc(N3CCCC3)c(NC(=S)Nc3cccc(S(=O)(=O)N(C)C)c3)c2)cc1 in the list: –	inactive: -15.8%
Cc1ccc2[nH]c(=O)c(C3C(C#N)=C(N)Oc4c3ccc3cccnc43)cc2c1 (centres undefined) in the list: inconclusive: 17.8 µM [inhibitor, partial curve]	–
Cn1c(Oc2ccccc2NCc2cccc(Br)c2)cc(=O)n(C)c1=O in the list: inconclusive: 35.5 µM [inhibitor, single point]	–
